Data: patent US20050053973A1 (published 2005)

Target: CD28 on monkey PBMC (monkey)
Test: cell-based or functional assay

B1: CD28-A7 (designed binder)
chain: CGPGRFQCESGQCIPATWVCDGENDCVDDSDEKSCATTAPTCGSGQFRCSNGNCLPLRLGCDGVDDCGDSSDEPLDPCAATVRT
IC50, PBMC assay on monkey cells: 2 nM
